Experimental data taken from patent US20050058603A1, “Drug delivery system based on polymer nanoshells” (Case Western Reserve University, priority 2003, published 2005).

Test system: MCF-7 cells
Assay: Cytotoxicity study of DOX loaded shells vs free doxorubicin solution and empty shells
Conditions: incubated in culture media for 5 days

## COc1cccc2c1C(=O)c1c(O)c3c(c(O)c1C2=O)C[C@@](O)(C(=O)CO)C[C@@H]3O[C@H]1C[C@H](N)[C@H](O)[C@H](C)O1.Cl [Doxorubicin solution, Doxorubicin]
  IC50: 12 ± 2 nM
